Source: publication PMC4217029
Changes are numbered by the printed parent chain. In names and notes the source's numbering stands. No constants are given. Whether binding was seen depends on the method and setting. In cells and extracts the contact can be indirect. Some entries that bind do so weakly or less than the wild type. Tags and fused reporters may be left off the sequences shown.

Columns and labels:
Assay in all cases: co-IP; Lac1-Lag1 association in cells with the wild-type proteins or the S23A S24A or S23E S24E mutants of both; data not shown; tags and bait not stated
[1] = target: T1, tagged Lag1 (S. cerevisiae) (UniProt P38703)
T1 sequence: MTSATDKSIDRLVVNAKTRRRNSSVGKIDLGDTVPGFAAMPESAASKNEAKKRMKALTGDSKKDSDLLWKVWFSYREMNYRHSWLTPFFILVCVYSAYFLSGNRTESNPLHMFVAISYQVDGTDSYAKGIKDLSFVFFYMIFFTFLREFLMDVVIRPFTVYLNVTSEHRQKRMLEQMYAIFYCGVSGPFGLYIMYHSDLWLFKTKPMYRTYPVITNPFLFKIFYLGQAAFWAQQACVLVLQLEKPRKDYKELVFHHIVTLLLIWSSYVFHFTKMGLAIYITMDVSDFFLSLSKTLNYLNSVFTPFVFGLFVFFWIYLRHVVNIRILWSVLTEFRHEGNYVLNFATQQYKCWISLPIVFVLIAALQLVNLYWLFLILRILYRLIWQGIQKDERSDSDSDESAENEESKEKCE

[2] = target: T2, tagged Lag1(S23A S24A) (S. cerevisiae) (UniProt P38703)
T2 sequence: T1 sequence with S23A, S24A

[3] = target: T3, tagged Lag1(S23E S24E) (S. cerevisiae) (UniProt P38703)
T3 sequence: T1 sequence with S23E, S24E

B1: 3xHA-Lac1 (protein, UniProt P28496 1-418)
chain: MSTIKPSPSNNNLKVRSRPRRKSSIGKIDLGDTVPSLGTMFETKESKTAAKRRMQRLSEATKNDSDLVKKIWFSFREISYRHAWIAPLMILIAVYSAYFTSGNTTKTNVLHRFVAVSYQIGDTNAYGKGINDLCFVFYYMIFFTFLREFLMDVVIRPFAIRLHVTSKHRIKRIMEQMYAIFYTGVSGPFGIYCMYHSDLWFFNTKAMYRTYPDFTNPFLFKVFYLGQAAFWAQQACILVLQLEKPRKDHNELTFHHIVTLLLIWSSYVFHFTKMGLPIYITMDVSDFLLSFSKTLNYLDSGLAFFSFAIFVVAWIYLRHYINLKILWSVLTQFRTEGNYVLNFATQQYKCWISLPIVFVLIGALQLVNLYWLFLIFRVLYRILWRGILKDDRSDSESDEESDESSTTPTDSTPTKKDI
[1]
  binding: binds

B2: 3xHA-Lac1(S23A S24A) (protein, UniProt P28496 1-418)
chain: B1 chain with S23A, S24A
[2]
  binding: binds

B3: 3xHA-Lac1(S23E S24E) (protein, UniProt P28496 1-418)
chain: B1 chain with S23E, S24E
[3]
  binding: binds
